Some of these results come from one statement about several compounds together. At least one compound was matched to its structure with a doubt left.
Tested on: K562/C1000, a human multidrug resistant cancer cell line
Experiment: MDR in vitro test: sensitization of K562/C1000 cell growth to a classic cytostatic
Type: cell-based
Details: classic cytostatic e.g. vinblastine 10^-12 to 10^-5 M, fixed concentration 10^-6 M of compound

Structure (SMILES)	sensitization ratio SR = IC50(cytostatic) over IC50(cytostatic/compound)
CC(C)OC(=O)c1cnc2n1CCc1ccccc1C2=C1CCN(CCc2ccc(OCc3ccc4ccccc4n3)cc2)CC1 [Compound 77]	≥ 5
c1ccc2c(c1)Cn1ccnc1C2C1CCN(CCc2ccc(OCc3ccc4ccccc4n3)cc2)CC1 (racemic) [Compound 36]	≥ 5
Clc1nc2n(c1Cl)CCc1ccccc1C2=C1CCN(CCc2ccc(OCc3ccc4ccccc4n3)cc2)CC1 [Compound 58]	≥ 5
O=C1Cn2ccnc2C(=C2CCN(CCc3ccc(OCc4ccc5ccccc5n4)cc3)CC2)c2ccsc21 [Compound 27]	≥ 5
Cn1ccc2c1CCn1ccnc1C2=C1CCN(CCOc2ccc(OCc3ccc4ccccc4n3)cc2)CC1 [Compound 18]	≥ 5
COC(=O)c1cnc2n1CCc1ccccc1C2=C1CCN(CCc2ccc(OCc3ccc(Cl)cc3)cc2)CC1 [Compound 96]	≥ 5
c1ccc2c(c1)CCn1ccnc1C2=C1CCN(CCc2ccc(OCc3ccc4ccccc4n3)cc2)CC1 [Compound 1]	≥ 5
CCOC(=O)c1nc2n(c1Cl)CCc1ccccc1C2=C1CCN(CCc2ccc(OCc3ccc4ccccc4n3)cc2)CC1 [Compound 61]	≥ 5
COC(=O)c1cnc2n1CCc1ccccc1C2=C1CCN(CCc2ccc(OCc3ccccn3)cc2)CC1 [Compound 89]	≥ 5
COC(=O)C=Cc1cnc2n1CCc1ccccc1C2=C1CCN(CCc2ccc(OCc3ccc4ccccc4n3)cc2)CC1 [Compound 62]	≥ 5
Cc1ccc2nc(COc3ccc(CCN4CCC(=C5c6ccn(C)c6CCn6ccnc65)CC4)cc3)ccc2c1 [Compound 31]	≥ 5
O=C(c1ncc[nH]1)c1cnc2n1CCc1ccccc1C2=C1CCN(CCc2ccc(OCc3ccc4ccccc4n3)cc2)CC1 [Compound 47]	≥ 5
COC(=O)c1cnc2n1CCc1ccccc1C2=C1CCN(CCc2ccc(OCc3cc(F)cc(F)c3)cc2)CC1 [Compound 99]	≥ 5
O=Cc1cnc2n1CCc1ccccc1C2C1CCN(CCc2ccc(OCc3ccc4ccccc4n3)cc2)CC1 (racemic) [Compound 82]	≥ 5
COC(=O)c1cnc2n1CCc1ccccc1C2=C1CCN(CCc2ccc(OCc3ccc4c(ccc(=O)n4C)c3)cc2)CC1 [Compound 94]	≥ 5
COC(=O)c1cnc2n1CCc1ccccc1C2=C1CCN(CCc2ccc(OCc3ccc4ccccc4n3)cc2)CC1.Cl.Cl.Cl [Compound 45]	≥ 5

Structure (SMILES)	sensitization ratio SR = IC50(cytostatic) over IC50(cytostatic/compound)
Cn1ccc2c1C(=O)Cn1ccnc1C2=C1CCN(CCc2ccc(OCc3ccc4ccccc4n3)cc2)CC1 [Compound 30]	≥ 5
COC(=O)c1cnc2n1CCc1ccccc1C2=C1CCN(CCc2ccc(OCc3cc(C(F)(F)F)cc(C(F)(F)F)c3)cc2)CC1 [Compound 93]	≥ 5
COC(=O)c1cnc2n1CCc1ccccc1C2=C1CCN(CCc2ccc(OCc3ccc4ccccc4n3)cc2)CC1.COC(=O)c1cnc2n1CCc1ccccc1C2=C1CCN(CCc2ccc(OCc3ccc4ccccc4n3)cc2)CC1.O=C(O)/C=C/C(=O)O.O=C(O)/C=C/C(=O)O.O=C(O)/C=C/C(=O)O [Compound 69]	≥ 5
O=C(OCc1ccccc1)c1cnc2n1CCc1ccccc1C2=C1CCN(CCc2ccc(OCc3ccc4ccccc4n3)cc2)CC1 [Compound 9, phenylmethyl 6,11-dihydro-11-[1-[2-[4-(2-quino-linyl-methoxy)phenyl]ethyl]-4-piperidinylidene]-5H-imidazo[2,1-b][3]benzazepine-3-carboxylate]	≥ 5
CC(=O)OCc1cnc2n1CCc1ccccc1C2=C1CCN(CCc2ccc(OCc3ccc4ccccc4n3)cc2)CC1 [Compound 3, [5,6-dihydro-11-[1-[2-[4-(2-quinolinylmethoxy)phenyl]ethyl]-4-piperidinylidene]-11H-imidazo[2,1-b][3]benzazepine-3-yl]methanol acetate(ester)]	≥ 5
C1=Cn2ccnc2C(=C2CCN(CCc3ccc(OCc4ccc5ccccc5n4)cc3)CC2)c2ccccc21 [Compound 84]	≥ 5
COC(=O)c1cnc2n1CCc1ccccc1C2=C1CCN(CCc2ccc(Oc3cccc(Cl)n3)cc2)CC1 [Compound 95]	≥ 5
COC(=O)c1cnc2n1CCc1ccccc1C2=C1CCN(CC(=NO)c2ccc(OCc3ccc4ccccc4n3)cc2)CC1 [Compound 74]	≥ 5
COc1cc(CN2CCC(=C3c4ccccc4CCn4c(C=O)cnc43)CC2)cc(OC)c1OCc1ccc2ccccc2n1 [Compound 34]	≥ 5
COC(=O)c1cnc2n1CCc1ccccc1C2=C1CCN(Cc2ccc(OCc3ccc4ccccc4n3)cc2)CC1 [Compound 70]	≥ 5
O=Cc1c(Cl)nc2n1CCc1ccccc1C2=C1CCN(CCc2ccc(OCc3ccc4ccccc4n3)cc2)CC1 [Compound 63]	≥ 5
CCCCOC(=O)c1cnc2n1CCc1ccccc1C2=C1CCN(CCc2ccc(OCc3ccc4ccccc4n3)cc2)CC1 [Compound 65]	≥ 5
COC(=O)c1cnc2n1CCc1ccccc1C2=C1CCN(CCc2ccc(OCc3ccc(OC)cc3)cc2)CC1 [Compound 97]	≥ 5
COC(=O)c1cnc2n1CCc1ccccc1C2=C1CCN(CCc2ccc(Oc3ccccc3)cc2)CC1 [Compound 100]	≥ 5
O=Cc1cn2c(n1)C(=C1CCN(CCc3ccc(OCc4ccc5ccccc5n4)cc3)CC1)c1ccccc1CC2 [Compound 67]	≥ 5
